Assay results as given in the supplement of paper PMC5355238.
Counter-ions that a name gives are not always drawn. The list shows a part of the results. Many values rest on one well or one pass, so single values are uncertain.

test system: Reh; assay: S-phase gammaH2AX median, Z-score vs plate median (drug alone); higher = more S-phase DNA damage; details: MK1775 concentration 0 nM; 10 µM; 4 h

Structure (SMILES)	S-phase gammaH2AX median (Z-score)
COc1ccccc1N1CCN(CCN2C(=O)CC3(CCCC3)CC2=O)CC1 [BMY 7378 dihydrochloride]	-0.00194
CC(C)(C)c1cc(/C=C(\C#N)C(N)=S)cc(C(C)(C)C)c1O [Tyrphostin AG 879]	0.374
Cc1nc2c(OCc3ccccc3)cccn2c1CC#N	0.0346
CCOC(=O)C1=C(C)NC(C)=C(C(=O)OC)C1c1cccc([N+](=O)[O-])c1 (centres undefined) [Nitrendipine]	0.00946
CN(C)c1nc(N)c(C(=O)NC(=N)N)nc1Cl [5-(N,N-Dimethyl)amiloride hydrochloride]	0.92
O=C(c1ccc(OCCN2CCCCC2)cc1)c1c(-c2ccc(O)cc2)sc2cc(O)ccc12 [Evista (Raloxifene Hydrochloride)]	-0.13
O=C(c1ccc(OCCN2CCCCC2)cc1)c1c(-c2ccc(O)cc2)sc2cc(O)ccc12 [Raloxifene hydrochloride]	-0.173
CC(CN1c2ccccc2Sc2ccccc21)N(C)C (centres undefined) [Promethazine hydrochloride]	-0.0378
CNC(=O)c1ccccc1Sc1ccc2c(/C=C/c3ccccn3)n[nH]c2c1 [Axitinib]	0.0313
O=C(Nc1cccc(Cl)c1)Nc1ncc(CCNc2ncnc3ccsc23)s1	-0.135
CCCOC(=O)c1c(-c2ccccc2)nc(CC)c(C(=O)SCC)c1CCC	0
COc1ccc(CCCOC(Cn2ccnc2)c2ccc(OC)cc2)cc1 (centres undefined)	0.04
O=C(NCC1CCCCN1)c1cc(OCC(F)(F)F)ccc1OCC(F)(F)F (centres undefined) [Flecainide acetate]	-0.189
COc1cc(N2CCC(N3CCN(C)CC3)CC2)ccc1Nc1ncc(Cl)c(Nc2ccccc2S(=O)(=O)C(C)C)n1	-0.192
N[C@@H](CCC(=O)N[C@@H](CSN=O)C(=O)NCC(=O)O)C(=O)O [S-Nitrosoglutathione]	0.187
CCCCC#Cc1nc(N)c2ncn([C@@H]3O[C@H](C(=O)NCC)[C@@H](O)[C@H]3O)c2n1	-0.23
CC(CCc1ccc(O)cc1)NCCc1ccc(O)c(O)c1 (centres undefined) [Dobutamine hydrochloride]	-0.211
O=c1cc(O)cc(/C=C/c2ccc(O)c(O)c2)o1 [Hispidin]	-0.101
COc1cc2ncnc(Nc3ccc(Oc4ccccc4)cc3)c2cc1OC	-0.0452
O=C1C(Cl)=C(NCCN2CCOCC2)C(=O)c2ncccc21	2.3

Fetched one by one from the list above, two records:
Structure (SMILES)	S-phase gammaH2AX median (Z-score)
O=C(c1ccc(OCCN2CCCCC2)cc1)c1c(-c2ccc(O)cc2)sc2cc(O)ccc12 [Evista (Raloxifene Hydrochloride)]	-0.13
CCOC(=O)C1=C(C)NC(C)=C(C(=O)OC)C1c1cccc([N+](=O)[O-])c1 (centres undefined) [Nitrendipine]	0.00946

The results go on:

Structure (SMILES)	S-phase gammaH2AX median (Z-score)
O=c1[nH]c(=O)n([C@H]2C[C@H](O)[C@@H](CO)O2)cc1/C=C/Br [(E)-5-(2-Bromovinyl)-2'-deoxyuridine]	0.0563
Cn1c(=O)c(F)c(Nc2ccc(I)cc2F)c2c(=O)n(C[C@@H](O)CO)cnc21	0.242
CC(C)N(CCC(=O)c1ccc2ccccc2c1)Cc1ccccc1	0.097
CNC1(C)C2CCC(C2)C1(C)C (centres undefined) [Mecamylamine hydrochloride]	0.121
c1ccc2c(-c3cnn4cc(-c5ccc(N6CCNCC6)cc5)cnc34)ccnc2c1	-0.271
CC(C)(Oc1ccc(C2CC2(Cl)Cl)cc1)C(=O)O (centres undefined) [Ciprofibrate]	0.0583
Nc1nc(Nc2ccc(S(N)(=O)=O)cc2)nn1C(=O)c1c(F)cccc1F	-0.07
CC(C)c1onc(-c2c(Cl)cccc2Cl)c1COc1ccc(/C=C/c2cccc(C(=O)O)c2)c(Cl)c1	-0.0468
O=C(O)CCC/C=C\C[C@@H]1[C@@H](/C=C/[C@H](O)C2Cc3ccccc3C2)[C@@H](F)C[C@@H]1O	-0.0485
Cc1[nH]c(/C=C2\C(=O)Nc3ccc(S(=O)(=O)Cc4c(Cl)cccc4Cl)cc32)c(C)c1C(=O)N1CCC[C@@H]1CN1CCCC1	-0.00812
COc1cc2c(cc1OC)CN(CCc1ccc(NC(=O)c3cccc4c(=O)c5cccc(OC)c5[nH]c34)cc1)CC2 [Elacridar]	-0.0746
CCn1c(-c2nonc2N)nc2cnc(Oc3cccc(NC(=O)c4ccc(OCCN5CCOCC5)cc4)c3)cc21	-0.0182
Cn1cnc2c(NC3CCCC3)ncnc21 [N6-Cyclopentyl-9-methyladenine]	0.0781
CC[C@]1(O)C[C@@H]2CN(CCc3c([nH]c4ccccc34)[C@@](C(=O)OC)(c3cc4c(cc3OC)N(C)[C@H]3[C@@](O)(C(=O)OC)[C@H](OC(C)=O)[C@]5(CC)C=CCN6CC[C@]43[C@@H]65)C2)C1 [Vinblastine sulfate salt]	0.147
CC[C@]1(O)C[C@@H]2CN(CCc3c([nH]c4ccccc34)[C@@](C(=O)OC)(c3cc4c(cc3OC)N(C)[C@H]3[C@@](O)(C(=O)OC)[C@H](OC(C)=O)[C@]5(CC)C=CCN6CC[C@]43[C@@H]65)C2)C1 [Vinblastine]	-0.0553
Cn1cnc(N)c2ncnc1-2 [3-Methyladenine]	0.0994
CC(=O)NCCc1ccc(O)c(O)c1 [N-Acetyldopamine monohydrate]	0.00194
Nc1nccc2c1ncn2[C@@H]1O[C@H](CO)[C@@H](O)[C@H]1O [3-deazaadenosine]	-0.0945
N[C@@H](Cc1ccc(F)cc1)C(=O)O [p-Fluoro-L-phenylalanine]	-0.0819
